The values below come from patent publication EP4696714A1, “PREPARATION METHOD FOR NANOBODY TARGETING TISSUE FACTOR AND CONJUGATE AND USE THEREOF” (Fudan University, priority 2023, dated 2024).

These are yes or no findings as the source states them, for the method shown. Binding calls can cover weak binding; strength is not graded here.

The target of this test is cynomolgus monkey TF-ECD (extracellular domain fragment of TF protein) (cynomolgus monkey). The experiment in a line: ELISA, cynomolgus monkey TF-ECD coated. Background: In an ELISA, binding on a coated surface is turned into a signal by an enzyme label.

B1: original nanobody 4A02 (parental antibody 4A02, as comparator in Examples 11 and 12) (Fc fusion)
VHH: QVQLVESGGGLVQPGGSLSLSCTASETISSTYIMGWHRRSPGKERELVAVISGDGVTHYADFVKGRFVISRDNAKNAVYLKMNFLTPEDTAVYYCYAAGRWNHWGQGTQVTVSS
notes: not shown: Fc segment of the comparator
For B1, the binding result is reported as “binds”.
